{"source": "paper PMC10163288", "binders": {"B1": {"name": "il2ra_site2_3nfp_normal_mot_HHH_b1_02297_000000279_0001_41_58_H_._HHH_b2_07606_af2_0001_0000500038_0000001_0_af2pred_0001_1_af2pred_swapped (protein)", "chain": "SSSSSSDEEELKEELEELLKEGDEEKLKEVVREASYLAAELGDHELFALAILAFESLLSSSSSSS"}, "B2": {"name": "il2ra_site2_2erj_sap_28_mot_HHH_b1_03572_af2_000000102_0001_41_56_H_._HHH_b2_05779_af2_0001_0000200012_0000001_0_0001 (protein)", "chain": "SSSSDDFVEAAEEALRMAIQLARMRGDEEVVERLEELLEELEEHKDPRVAEEAHELAWKVLSSSS"}, "B3": {"name": "il2ra_site2_2erj_normal_mot_HHH_b2_05804_000000098_0001_44_58_H_._HHH_b2_07531_af2_0001_0000200020_0000001_0 (protein)", "chain": "SSSSDERWEKIARLAAEALELFEEGNREEAEEVLEEALRLAEENNDEFAKRYLEFARRAASSSSS"}, "B4": {"name": "il2ra_site1_2b5i_normal_mot_HHH_b2_06044_000000134_0001_1_20_H_._HHH_b1_07499_af2_0001_0000500033_0000001_0_af2pred_dldesign_0_af2pred (protein)", "chain": "SSSSSSDEVHELFKEALRLKRAGKKEEAKKLLEEAIAKARAAGDTKAVAELEYFLSKLSSSSSSS"}, "B5": {"name": "il2ra_site2_3nfp_normal_mot_HHH_b1_04960_000000149_0001_23_39_H_._HHH_b1_02627_af2_0001_0000200011_0000001_0 (protein)", "chain": "SSSSSEVEEEVKRLYEEAERLLEEGNPEEAEEVLLRASAIAYQNNDFELFALLVELMRKIASSSS"}, "B6": {"name": "il2ra_site2_2erj_normal_mot_HHH_b2_02303_000000050_0001_43_56_H_._HHH_b2_05996_0001_0000100001_0000001_0 (protein)", "chain": "SSSSSDEIEEEVLELIAEAAHIPDPREAVEVLEHALELAEEYGNELLRRYLELSLKDQRGSSSSS"}, "B7": {"name": "il2ra_site1_3nfp_normal_mot_6594a5726bb0445e4a0df846cfb9f966_0001_1_000000191_0001_16_30_H_._3ff75f044bbd266f07abdfc5542de534_0001_0001_0001000020_0000001_0 (protein)", "chain": "SSVVRMVEELRERLNIPPEEAVELVVEEIARLANIPPKEAVRLALRDVRRAGNPEISRILEELEK"}, "B8": {"name": "il2ra_site1_1z92_sap_9_mot_HHH_b2_03060_af2_000000189_0001_43_58_H_._HHH_b1_06544_af2_0002_0000400024_0000001_1_0001 (protein)", "chain": "SSSSDTLEEALEMLLKVAERALRAGNPEAARRWIKFAAEQARDLGDEEVLRELEELEELANSSSS"}, "B9": {"name": "il2ra_site2_3nfp_sap_27_mot_HHH_b1_05547_af2_000000149_0001_21_38_H_._ems_3hC_79_af2_0001_0000200007_0000001_0_0001_1_af2pred_0001_af2pred (protein)", "chain": "SSSSSEVEEEVRELIERVKEAIKEGDEHKAFALYVEAFQLVAKHDNEELEELLEELAKLLRSSSS"}, "B10": {"name": "il2ra_site2_2erj_sap_19_mot_35d2dc24e2c4431f89e6f806b163ecf8_0001_af2_000000103_0001_35_49_H_._HHH_b1_02824_0001_0000800030_0000001_0_0001 (protein)", "chain": "SSSSSSVEEEVRELLEEAERLYEEGDLHEVYRLLSEAMHLASRHNNDELLEEIAKVVERLSSSSS"}, "B11": {"name": "il2ra_site2_2erj_normal_mot_HHH_b2_05044_af2_000000138_0001_1_15_H_._HHH_b2_07555_0001_0000600021_0000001_0 (protein)", "chain": "SSSSDTAELLNEAFELARELFKRGDPEEAREVLEEVLRELEELNDPDAVETLEKLLRFLEESSSS"}, "B12": {"name": "il2ra_site1_3nfp_sap_15_mot_46d73865503fbedcaf0f3a45445d594c_0001_af2_000000151_0001_1_12_H_._HEEHE_2475_0001_0000500042_0000001_0_0001_af2pred_0001_af2pred_1 (protein)", "chain": "SSSSSRERIRELLERAKELLKNGNPEEAEELLREALELAEERGSPVLRKFLEQALELIELSSSSS"}, "B13": {"name": "il2ra_site1_2b5i_normal_mot_HHH_b2_04461_000000219_0001_1_19_H_._HHH_b2_07080_0001_0000900018_0000001_0_af2pred_dldesign_0_af2pred (protein)", "chain": "SSSSSLEDAKEARELFLEANTLSDVAARRALLERALELAEKAKCNLLARLIRWALANLDSSSSSS"}, "B14": {"name": "il2ra_site1_2b5i_sap_16_mot_3e13e3ed3b6e195f81032bb5ce78c6bf_0001_1_af2_000000143_0001_17_32_H_._HHH_b2_03076_af2_0001_0000800023_0000001_0_0001_af2pred_0001_af … (protein)", "chain": "SSSSSEAIERIDELWAEASRLWLNGNPEEAEEVLEEALKLAEEENDEVARRDIREFLERGSSSSS"}, "B15": {"name": "il2ra_site2_2erj_normal_mot_HHH_b2_00732_af2_000000006_0001_23_40_H_._HHH_b2_02708_0001_0000400019_0000001_0 (protein)", "chain": "SSSSDESLEAIEEFIQKLIEEGNLEEAEAYAELAIRMLRRAGDEEAVEELEELLREIRELGSSSS"}, "B16": {"name": "il2ra_site1_3nfp_sap_18_mot_ems_3hC_836_0002_000000087_0001_24_40_H_._HHH_b1_03209_0001_0000500012_0000001_0_0001 (protein)", "chain": "DMEKLVEWIVRSFKENPRAVKRFIEHALEVAGDPEMREEFLRRLEELARELGLDELKEVLEELRK"}, "B17": {"name": "il2ra_site2_2erj_normal_mot_ems_3hC_1315_af2_000000245_0001_45_63_H_._a2bf7c1b5df5f4a6a28f683756f784c8_0001_1_0001_0000100004_0000001_0_af2pred_0001_1_af2pred_s … (protein)", "chain": "SEEVVEKLRRAVEEGTLEEVLEELLKEAEEKGDPELWLAVLAAIRLLQLGVPPEEVVEQFERLLR"}, "B18": {"name": "il2ra_site2_3nfp_sap_18_mot_HHH_b1_03612_af2_000000124_0001_42_57_H_._HHH_b2_00556_0001_0000700040_0000001_0_0001 (protein)", "chain": "SSSSDHEELVEMALRSVKVLRRQGNPEEARKSVEYALAAAKLLNDEELLEELEQLLEELKSSSSS"}, "B19": {"name": "il2ra_site1_2b5i_normal_mot_HHH_b2_04910_000000118_0001_1_19_H_._HHH_b1_03302_0001_0000400037_0000001_0_af2pred_dldesign_0_af2pred (protein)", "chain": "SSSSSPTGKRLREMFLEADRLKQAGKDEEAKEVLERALEEATAAKNNLYLRMIQLALESLSSSSS"}}, "note": "The other results are listed elsewhere or left out.", "data": [{"target": "il2ra, P01589", "test": "yeast display titration", "values": [{"binder": "B1", "apparent Kd": "inactive: no binding seen"}, {"binder": "B2", "apparent Kd": "inactive: no binding seen"}, {"binder": "B3", "apparent Kd": "inactive: no binding seen"}, {"binder": "B4", "apparent Kd": "inactive: no binding seen"}, {"binder": "B5", "apparent Kd": "inactive: no binding seen"}, {"binder": "B6", "apparent Kd": "inactive: no binding seen"}, {"binder": "B7", "apparent Kd": "inactive: no binding seen"}, {"binder": "B8", "apparent Kd": "inactive: no binding seen"}, {"binder": "B9", "apparent Kd": "inactive: no binding seen"}, {"binder": "B10", "apparent Kd": "inactive: no binding seen"}, {"binder": "B11", "apparent Kd": "inactive: no binding seen"}, {"binder": "B12", "apparent Kd": "inactive: no binding seen"}, {"binder": "B13", "apparent Kd": "inactive: no binding seen"}, {"binder": "B14", "apparent Kd": "inactive: no binding seen"}, {"binder": "B15", "apparent Kd": "inactive: no binding seen"}, {"binder": "B16", "apparent Kd": "inactive: no binding seen"}, {"binder": "B17", "apparent Kd": "inactive: no binding seen"}, {"binder": "B18", "apparent Kd": "inactive: no binding seen"}, {"binder": "B19", "apparent Kd": "inactive: no binding seen"}]}]}
